# The shares of active, inactive and inconclusive entries below differ from those in the screen. For part of these data: Potencies beside an inconclusive call are fits to weak or partial responses and may not hold up. For part of these data: A note “side channel” means that the fit belongs to a control or component signal, not to the main read-out. The source made the active and inactive calls. Unless noted, the call rests on the fitted dose curve; in most records, active means well fitted curve in the direction sought with a large enough effect; inconclusive means small, poorly fitted or top-dose-only effect, or another doubt; inactive means no such curve, though single readings can be large; an effect the other way counts as inactive or inconclusive.
# Protein sequences, listed by entry. Tags and fused reporters are not part of them.
# UniProt P07947, whole entry, looked up: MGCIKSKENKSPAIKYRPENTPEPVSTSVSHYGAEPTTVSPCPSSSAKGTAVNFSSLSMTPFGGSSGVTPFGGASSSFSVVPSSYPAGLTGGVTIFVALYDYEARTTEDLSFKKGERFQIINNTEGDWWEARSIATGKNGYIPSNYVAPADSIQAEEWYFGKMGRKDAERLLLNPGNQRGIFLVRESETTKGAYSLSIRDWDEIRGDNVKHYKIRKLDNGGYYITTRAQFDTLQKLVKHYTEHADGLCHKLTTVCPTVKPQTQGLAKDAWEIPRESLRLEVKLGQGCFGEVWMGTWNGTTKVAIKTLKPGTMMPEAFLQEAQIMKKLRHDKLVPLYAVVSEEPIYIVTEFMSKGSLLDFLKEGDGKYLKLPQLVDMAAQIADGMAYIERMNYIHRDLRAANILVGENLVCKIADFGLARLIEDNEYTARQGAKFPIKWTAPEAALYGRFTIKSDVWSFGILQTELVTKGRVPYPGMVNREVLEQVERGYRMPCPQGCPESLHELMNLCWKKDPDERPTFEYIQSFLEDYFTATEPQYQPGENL
# Columns and labels:
# [1] = Cytotoxicity counterscreen for NFkB agonists and antagonists (AID 624476);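 further: cells exposed to compound for 48 hours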; further: potency means the concentration at half of the fitted maximal effect
# [2] = Cell Proliferation Assay against the TMD8 Cell Line (Caspase readout at 16 hrs) (AID 651712); further: potency means the concentration at half of the fitted maximal effect
# Method in brief: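 Caspase-Glo luminescence measured apoptosis after a 16 h, 37 C compound exposure of TMD8 cells (500 cells/well, 5% FBS RPMI). DMSO set 0% and bortezomib at 9.2 uM final set 100% activity.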
# [3] = biological target: Tyrosine-protein kinase Yes (Homo sapiens) (UniProt P07947); assay: qHTS for small molecule inhibitors of Yes1 kinase: Primary Screen (AID 686947); further: nearly all actives have a fitted effect of over 60% in size; further: potency means the concentration at half of the fitted maximal effect
# Method in brief: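 In this qHTS format, inhibition is expressed relative to DMSO controls with enzyme (maximum) and without enzyme (minimum). The 60 min room-temperature reaction uses 0.1 mM ATP, with ADP detected by luminescence.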
# [4] = qHTS Assay for Identification of Small Molecule Antagonists for NFkB Signaling Pathway. (AID 624479; calls by dose curve;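 further: pathway stimulated with TNF alpha; potency means the concentration at half of the fitted maximal effect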)
# [5] = qHTS Assay for Identification of Small Molecule Agonists for NFkB Signaling Pathway. (AID 624478);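 on activation: compounds tested together with TNF alpha at its EC50 of 10 pM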
# Method in brief: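 Read-out: 460/530 nm emission at 405 nm excitation after 2 h LiveBLAzer loading; ME-180 NFkB-bla reporter cells exposed 5 h at 37 C to compounds with 10 pM TNF alpha final.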
# [6] = HTS Assay for Allosteric Antagonists of the Human D2 Dopamine Receptor: Hit Validation in HTRF (AID 624455); further: potency means the concentration at half of the fitted maximal effect
# Method in brief: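 HTRF read-out; cells stably expressing D1 receptor; hits scored for inhibition of D1-mediated response. Primary screen: calcium flux, force-coupled inducible Hek293 Trex D2 line, antagonism vs EC80 dopamine.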
# [7] = qHTS assay for small molecule agonists of the antioxidant response element (ARE) signaling pathway (AID 651741; active means well fitted activation curve with a large enough effect in the signal ratio; inconclusive means small, poorly fitted or top-dose-only effect, or effect the other way, or a change in a side signal; the % refers to the signal ratio); details: HepG2 ARE-bla reporter, beta-lactamase FRET ratio, 16 h; activation: at 96 µM (top of the series)
# Method in brief: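 Agonist activity is measured as ARE-driven beta-lactamase expression in a stable HepG2 reporter line, using 16 h compound treatment at 37 C and a FRET substrate fluorescence readout after 2 h.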
# [8] = qHTS assay for small molecule activators of the p53 signaling pathway (AID 651743; active means well fitted activation curve with a large enough effect in the signal ratio, not every such curve was filed as active; inconclusive means small, poorly fitted or top-dose-only effect, or a change in a side signal; the % refers to the signal ratio; further: potency means the concentration at half of the fitted maximal effect); details: HCT-116 p53RE-bla, beta-lactamase FRET ratio, 16 h; activation: hits give high values
# Method in brief: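 A beta-lactamase reporter under p53 response element control, stably carried by HCT-116 cells, reported pathway activation. Test compounds were applied for 16 hours at 37 C, and fluorescence was measured 2 hours after adding the B/G FRET substrate.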
compound,measurement,setting,value
CCOC(=O)N[C@@H]1CC[C@@H]2[C@@H](C1)C[C@H]1C(=O)O[C@H](C)[C@H]1[C@@H]2C=Cc1ccc(-c2cccc(F)c2)cn1,Potency,[1],inactive
same,Potency,[2],"inconclusive: 18.7 µM [activator, partial curve]"
COc1cc(F)c(F)c(Nc2ccc(I)cc2F)c1NS(=O)(=O)C1(C[C@H](O)CO)CC1,Potency,[1],"inconclusive: 23.5 µM [inhibitor, single point]"
same,Potency,[2],"inconclusive: 37.2 µM [activator, single point]"
same,Potency,[3],"inconclusive: 34.5 µM [inhibitor, single point]"
O=C1Nc2ccc(Cl)cc2C(C#CC2CC2)(C(F)(F)F)O1 (stereo not drawn),Potency,[1],"inconclusive: 54 µM [inhibitor, single point]"
Nc1nc2[nH]cc(CCc3ccc(C(=O)N[C@@H](CCC(=O)O)C(=O)O)cc3)c2c(=O)[nH]1,Potency,[1],inactive
same,Potency,[2],inactive
same,Potency,[3],"inconclusive: 38.7 µM [inhibitor, single point]"
COc1cc2ncnc(-n3nc(-c4ccccn4)nc3N)c2cc1OC,Potency,[1],"inconclusive: 18.7 µM [inhibitor, partial curve]"
same,Potency,[2],active: 16.6 µM
Cc1cc2c(cc1C1(c3ccc(C(=O)O)cn3)CC1)C(C)(C)CCC2(C)C,Potency,[1],"inconclusive: 33.2 µM [inhibitor, single point]"
same,Potency,[4],"inconclusive: 29.8 µM [inhibitor, partial curve, poor fit]"
same,Potency,[3],"inconclusive: 61.3 µM [inhibitor, single point]"
CCOC(CN1C(=O)[C@](CC(=O)Nc2ccc(C)cc2)(NC(=O)Nc2ccc(C)cc2)c2ccccc21)OCC,Potency,[1],"inconclusive: 26.4 µM [inhibitor, partial curve, poor fit]"
same,Potency,[4],active: 18.8 µM
same,Potency,[2],"inconclusive: 29.6 µM [activator, single point]"
same,Potency,[3],inactive
Cc1cccc(-c2nn(C(=S)Nc3ccccc3)cc2-c2ccnc3ccccc23)n1,Potency,[5],inactive
same,Potency,[4],"inconclusive: 29.8 µM [inhibitor, single point]"
same,Potency,[2],"inconclusive: 23.5 µM [activator, single point]"
Cc1cccc(-c2[nH]c(C(C)(C)C)nc2-c2ccc3nccnc3c2)n1,Potency,[1],inactive
same,Potency,[2],inactive
CCN(CC)CCCC(C)Nc1nc(C)cc(Nc2ccc3nc(C)cc(N)c3c2)n1 (stereo not drawn),Potency,[1],inactive
same,Potency,[2],inactive
CN1CCN(CCOc2cc(OC3CCOCC3)c3c(Nc4c(Cl)ccc5c4OCO5)ncnc3c2)CC1,Potency,[1],"inconclusive: 0.118 µM [inhibitor, partial curve]"
same,Potency,[4],"inconclusive: 21.1 µM [inhibitor, partial curve]"
same,Potency,[2],"inconclusive: 10.5 µM [activator, single point]"
CNC[C@H](O)c1cccc(O)c1,Potency,[6],active: 1.84 µM
same,Potency,[7],inactive
same,Potency,[8],"inconclusive: 0.141 µM [side channel, falling, full curve, poor fit]"
CCCCCCCCCCCCCC(=O)N[C@H](CO)[C@H](O)c1ccc([N+](=O)[O-])cc1,Potency,[1],"inconclusive: 33.2 µM [inhibitor, single point]"
same,Potency,[2],"inconclusive: 23.5 µM [activator, single point]"
O=C(Nc1cccnc1)N1CCC(Cc2cccc(Oc3ccc(C(F)(F)F)cn3)c2)CC1,Potency,[1],"inconclusive: 10.5 µM [inhibitor, partial curve]"
same,Potency,[4],"inconclusive: 14.9 µM [inhibitor, partial curve, poor fit]"
same,Potency,[2],"inconclusive: 13.2 µM [activator, partial curve]"
COc1cc(N2CCC(N3CCN(C)CC3)CC2)ccc1Nc1ncc(Cl)c(Nc2ccccc2S(=O)(=O)C(C)C)n1,Potency,[1],active: 2.09 µM
same,Potency,[2],"inconclusive: 14.8 µM [activator, partial curve]"
CC[C@H](CO)Nc1nc(NCc2ccccc2)c2ncn(C(C)C)c2n1,Potency,[1],"inconclusive: 37.2 µM [inhibitor, single point]"
same,Potency,[2],active: 0.935 µM
CO[C@@H](C(=O)N1Cc2[nH]nc(NC(=O)c3ccc(N4CCN(C)CC4)cc3)c2C1)c1ccccc1,Potency,[1],inactive
CN(C)C1CCN(C(=O)c2ccc(NC(=O)Nc3nc(N4CCOCC4)nc(N4CCOCC4)n3)cc2)CC1,Potency,[1],active: 0.0743 µM
same,Potency,[2],active: 6.62 µM
same,Potency,[3],"inconclusive: 54.7 µM [inhibitor, single point]"
CNC(=O)c1cc(COc2nnc(Nc3ccc(Cl)cc3)c3ccoc23)ccn1,Potency,[1],"inconclusive: 37.2 µM [inhibitor, single point]"
same,Potency,[5],"inconclusive: 33.2 µM [activator, single point]"
same,Potency,[2],"inconclusive: 33.2 µM [activator, single point]"
same,Potency,[3],inactive

# Some of the entries so far, with tabs:
compound	measurement	setting	value
CN(C)C1CCN(C(=O)c2ccc(NC(=O)Nc3nc(N4CCOCC4)nc(N4CCOCC4)n3)cc2)CC1	Potency	[3]	inconclusive: 54.7 µM [inhibitor, single point]
CNC(=O)c1cc(COc2nnc(Nc3ccc(Cl)cc3)c3ccoc23)ccn1	Potency	[1]	inconclusive: 37.2 µM [inhibitor, single point]
same	Potency	[5]	inconclusive: 33.2 µM [activator, single point]

# Source: PubChem BioAssay (NCATS)
